# From the supplement of paper PMC6414424
# ± gives the standard deviation of the averaged measurements. Some of the results follow.
# System: APPdp1-6 iPSC-derived neurons
# Test: pThr231Tau/total Tau ratio Z-score vs DMSO vehicle wells; higher = more pThr231Tau relative to total Tau
# Details: 5 µM; treatment time 5 days
row,Structure (SMILES),pThr231Tau/total Tau ratio Z-score
1,NCCc1c[nH]cn1 [Histamine],0.297 ± 1.6
2,CC[N+](C)(C)c1cccc(O)c1 [Prestw-83],0.182 ± 0.61
3,CC(=O)[C@@]1(O)CC[C@H]2[C@@H]3C=C(Cl)C4=CC(=O)[C@@H]5C[C@@H]5[C@]4(C)[C@H]3CC[C@@]21C [CYPROTERONE    Therap cat: antiandrogen],2.81 ± 4
4,Nc1[nH]cnc2ncnc1-2 [Adenine],1.2 ± 1.2
5,COc1cc(C(=O)OCCCN2CCCN(CCCOC(=O)c3cc(OC)c(OC)c(OC)c3)CC2)cc(OC)c1OC [Prestw-236],0.655 ± 0.39
6,CC[N+](C)(CC)CCOC(=O)C(O)(c1ccccc1)C1CCCCC1 (centres undefined),1.26 ± 2.4
7,CN(C)CCCN1c2ccccc2Sc2ccc(C(F)(F)F)cc21 [Prestw-53],-1.13 ± 0.079
8,CC1(C)OC(=O)C(OCC2CC2)=C1c1ccc(S(C)(=O)=O)cc1,1.43 ± 0.61
9,CCCCC(O)c1ccccc1 (centres undefined) [Prestw-1501],0.151 ± 1.8
10,CCN(CC)CCOC(=O)C1(C2CCCCC2)CCCCC1 [Prestw-48],-0.639 ± 0.85
11,CN1CCN(C2=Nc3ccccc3Oc3ccc(Cl)cc32)CC1 [Prestw-132],-0.831 ± 1.4
12,NCc1ccccc1CC(=O)N[C@@H]1C(=O)N2C(C(=O)O)=C(CSc3nnnn3CC(=O)O)CS[C@H]12 [Prestw-470],-0.0153 ± 0.15
13,COc1c2occc2cc2ccc(=O)oc12,0.507 ± 1.2
14,Oc1ccc2ccccc2c1 [beta-NAPHTHOL],-0.562 ± 0.18
15,C[N+]1(C)CCC(OC(=O)C(O)(c2ccccc2)C2CCCC2)C1 (centres undefined) [Prestw-746],-0.38 ± 1
16,N#Cc1ccc(C(c2ccc(C#N)cc2)n2cncn2)cc1 [Prestw-1025],-1.44 ± 0.42
17,Clc1ccc(CCC(Cn2ccnc2)Sc2c(Cl)cccc2Cl)cc1 (centres undefined) [Prestw-408],-1.17 ± 0.34
18,O=C(O)Cc1ccc(-c2ccccc2)cc1 [Prestw-893],0.659 ± 0.29
19,C[C@@H]1C[C@H]2[C@@H]3C[C@H](F)C4=CC(=O)C=C[C@]4(C)[C@@]3(F)[C@@H](O)C[C@]2(C)[C@@]1(O)C(=O)CO [Prestw-734],-0.56 ± 0.73
20,O=C(O)c1cn(-c2ccc(F)cc2)c2cc(N3CCNCC3)c(F)cc2c1=O [Prestw-1339],1.14 ± 0.79

row,Structure (SMILES),pThr231Tau/total Tau ratio Z-score
1,"O=C([O-])c1ccccc1[O-].[Bi+3].[OH-] [BISMUTH SUBSALICYLATE, antidiarrheal, antacid, antiulcer]",1.43 ± 1.8
2,CCCc1nc(C(C)(C)O)c(C(=O)OCc2oc(=O)oc2C)n1Cc1ccc(-c2ccccc2-c2nn[nH]n2)cc1 [Prestw-1190],-0.802 ± 1.1
3,C[C@]12CCC(=O)C=C1CC[C@@H]1[C@@H]2C(=O)C[C@@]2(C)[C@H]1CC[C@]2(O)C(=O)CO [Prestw-273],0.688 ± 1.9
4,COC(=O)[C@H](c1ccccc1Cl)N1CCc2sccc2C1,0.656 ± 1.3
5,COCCCC/C(=N\OCCN)c1ccc(C(F)(F)F)cc1 [Prestw-995],1.07 ± 1.1
6,"CC(=O)[C@@]12O[C@](C)(c3ccccc3)O[C@@H]1C[C@H]1[C@@H]3CCC4=CC(=O)CC[C@]4(C)[C@H]3CC[C@@]12C [ALGESTERONE ACETOPHENIDE, progestin]",2.89 ± 0.3
7,NC(=O)c1ccccc1O [SALICYLAMIDE    Therap cat:  Analgesic],1.6 ± 2.8
8,"Nc1nc(F)nc2c1ncn2[C@@H]1O[C@H](COP(=O)(O)O)[C@@H](O)[C@@H]1O [FLUDARABINE PHOSPHATE, antineoplastic]",1.14 ± 2.1
9,CCOC(=O)N1CCC(=C2c3ccc(Cl)cc3CCc3cccnc32)CC1 [Prestw-1432],-1.11 ± 1
10,Oc1c(Br)cc(Br)c2cccnc12 [BROXYQUINOLINE    Therap cat:  Antiseptic; disinfectant],1.5 ± 1.1
11,c1ccc(CC2=NCCN2)cc1 [Prestw-60],1.52 ± 3.5
12,OCCN1CCN(CCCN2c3ccccc3Sc3ccc(C(F)(F)F)cc32)CC1 [Prestw-320],-1.31 ± 0.3
13,CC(C)(Oc1ccc(CCNC(=O)c2ccc(Cl)cc2)cc1)C(=O)O [Prestw-378],0.359 ± 2.2
14,O=C(O)CCc1nc(-c2ccccc2)c(-c2ccccc2)o1 [Prestw-1060],-0.235 ± 0.8
15,O=C1c2ccccc2C(=O)C1c1ccccc1 [Prestw-538],0.147 ± 1.4
16,Clc1ccc2c(c1)C(N1CCNCC1)=Nc1ccccc1O2 [Prestw-102],-1.51 ± 0.22
17,CC(C)N=C(N)/N=C(\N)Nc1ccc(Cl)cc1 [Prestw-999],0.707 ± 0.52
18,CC[C@H]1OC(=O)[C@H](C)[C@@H](O[C@H]2C[C@@](C)(OC)[C@@H](O)[C@H](C)O2)[C@H](C)[C@@H](O[C@@H]2O[C@H](C)C[C@H](N(C)C)[C@H]2O)[C@](C)(O)C[C@@H](C)C(=O)[C@H](C)[C@@H](O)[C@]1(C)O,0.0273 ± 0.19
19,CC[C@H]1OC(=O)[C@H](C)[C@@H](O[C@H]2C[C@@](C)(OC)[C@@H](O)[C@H](C)O2)[C@H](C)[C@@H](O[C@@H]2O[C@H](C)C[C@H](N(C)C)[C@H]2O)[C@](C)(O)C[C@@H](C)C(=O)[C@H](C)[C@@H](O)[C@]1(C)O [Prestw-151],0.451 ± 1.2

# 2 records picked at random from those above, as already listed:
row,Structure (SMILES),pThr231Tau/total Tau ratio Z-score
18,CC[C@H]1OC(=O)[C@H](C)[C@@H](O[C@H]2C[C@@](C)(OC)[C@@H](O)[C@H](C)O2)[C@H](C)[C@@H](O[C@@H]2O[C@H](C)C[C@H](N(C)C)[C@H]2O)[C@](C)(O)C[C@@H](C)C(=O)[C@H](C)[C@@H](O)[C@]1(C)O,0.0273 ± 0.19
7,CN(C)CCCN1c2ccccc2Sc2ccc(C(F)(F)F)cc21 [Prestw-53],-1.13 ± 0.079
